The supplement of paper PMC6078165
Values are relative to the signal before dosing, not to a vehicle control; the signal also falls without drug.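 Labels refer to human fibroblasts, largely primary: uterine (C12385, HUF), lung (H6013), bone (Hs27A), adrenal (HADF), skin (WS1), plus mammary HMF and breast cancer-associated Hs343T. Cancer lines are basal-like or mesenchymal-like triple-negative breast cancer. The paper counts as hits responses shifting over 3x the replicate standard deviation. The tissue of the other fibroblasts is not given here.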

System: MDAMB436
Assay: relative JC-1 red fluorescence (viability) vs pre-drug, coculture with fibroblast (fraction); higher = more viable cancer cells
Experimental: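 JC-1 labelled TNBC cells cocultured 1:1 (1,500 cells each) with CellTrace Violet stained primary or stromal fibroblasts in 384-well plates in FluoroBrite medium, treated with one of 42 anticancer drugs at 0.1, 1, 10 or 100 uM. JC-1 red fluorescence (mitochondrial integrity in cancer cells only) was read by plate reader every 8 h for 72 h. Values are normalised to each well's pre-drug value. The stock of one drug was tenfold lower, so its dose labels may be too high.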

C[C@]12CC[C@@H]3c4ccc(O)cc4C[C@@H](CCCCCCCCC[S+]([O-])CCCC(F)(F)C(F)(F)F)[C@H]3[C@@H]1CC[C@@H]2O (stereo partly drawn) [Fulvestrant]
relative JC-1 red fluorescence
Settings | 8 h | 16 h | 24 h | 32 h | 40 h | 48 h | 56 h | 64 h | 72 h
10 µM, coculture fibroblast: C12385 | 0.902 | 0.863 | 0.843 | 0.745 | 0.703 | 0.689 | 0.656 | 0.644 | 0.625
10 µM, coculture fibroblast: H6013 | 0.971 | 0.953 | 0.902 | 0.906 | 0.881 | 0.885 | 0.865 | 0.85 | 0.828
10 µM, coculture fibroblast: H6019 | 0.868 | 0.842 | 0.826 | 0.788 | 0.775 | 0.772 | 0.75 | 0.738 | 0.727
10 µM, coculture fibroblast: H6076 | 0.9294 | 0.896 | 0.8123 | 0.761 | 0.714 | 0.71 | 0.721 | 0.741 | 0.733
10 µM, coculture fibroblast: H6231 | 0.9386 | 0.978 | 0.978 | 0.906 | 0.948 | 0.915 | 0.935 | 0.981 | 0.9857
10 µM, coculture fibroblast: HADF | 0.865 | 0.955 | 0.941 | 0.912 | 0.928 | 0.906 | 0.829 | 0.911 | 0.838
10 µM, coculture fibroblast: HCFa | 0.951 | 0.9469 | 0.887 | 0.848 | 0.826 | 0.828 | 0.793 | 0.81 | 0.783
10 µM, coculture fibroblast: HCPF | 0.969 | 0.777 | 0.748 | 0.9261 | 0.949 | 0.894 | 0.948 | 0.829 | 0.881
10 µM, coculture fibroblast: HHSteC | 0.948 | 0.905 | 0.927 | 0.909 | 0.91 | 0.798 | 0.878 | 0.868 | 0.826
10 µM, coculture fibroblast: HMF | 0.952 | 0.9093 | 0.838 | 0.7508 | 0.709 | 0.68 | 0.6453 | 0.6268 | 0.631
10 µM, coculture fibroblast: HPFa | 0.958 | 0.926 | 0.848 | 0.7859 | 0.741 | 0.724 | 0.641 | 0.602 | 0.536
10 µM, coculture fibroblast: HUF | 0.919 | 0.84 | 0.791 | 0.725 | 0.674 | 0.635 | 0.607 | 0.585 | 0.571
10 µM, coculture fibroblast: Hs5 | 0.891 | 0.86 | 0.807 | 0.715 | 0.677 | 0.658 | 0.658 | 0.636 | 0.617
10 µM, coculture fibroblast: Hs27A | 0.942 | 0.84 | 0.897 | 0.883 | 0.835 | 0.864 | 0.788 | 0.778 | 0.74
10 µM, coculture fibroblast: Hs343T | 0.92 | 0.917 | 0.835 | 0.757 | 0.709 | 0.687 | 0.676 | 0.676 | 0.662
10 µM, coculture fibroblast: WS1 | 0.8785 | 0.8255 | 0.797 | 0.716 | 0.676 | 0.659 | 0.626 | 0.602 | 0.586
100 µM, coculture fibroblast: C12385 | 0.936 | 0.892 | 0.865 | 0.923 | 0.868 | 0.911 | 0.917 | 0.846 | 0.917
100 µM, coculture fibroblast: H6013 | 0.921 | 0.951 | 0.931 | 0.938 | 0.914 | 0.938 | 0.907 | 0.888 | 0.856
100 µM, coculture fibroblast: H6019 | 0.896 | 0.78 | 0.897 | 0.795 | 0.767 | 0.873 | 0.787 | 0.875 | 0.865
100 µM, coculture fibroblast: H6076 | 0.887 | 0.986 | 0.814 | 0.972 | 0.947 | 0.91 | 0.915 | 0.931 | 0.954
100 µM, coculture fibroblast: H6231 | 0.731 | 0.8 | 0.825 | 0.816 | 0.786 | 0.821 | 0.819 | 0.757 | 0.914
100 µM, coculture fibroblast: HADF | 0.8026 | 0.935 | 0.937 | 0.937 | 0.867 | 0.952 | 0.854 | 0.821 | 0.806
100 µM, coculture fibroblast: HCFa | 0.97 | 0.95 | 0.94 | 0.932 | 0.908 | 0.947 | 0.8824 | 0.918 | 0.874
100 µM, coculture fibroblast: HCPF | 0.896 | 0.804 | 0.817 | 0.741 | 0.738 | 0.803 | 0.799 | 0.85 | 0.782
100 µM, coculture fibroblast: HHSteC | 0.931 | 0.936 | 0.912 | 0.885 | 0.858 | 0.869 | 0.802 | 0.7874 | 0.7393
100 µM, coculture fibroblast: HMF | 0.728 | 0.888 | 0.9284 | 0.892 | 0.867 | 0.848 | 0.841 | 0.85 | 0.86
100 µM, coculture fibroblast: HPFa | 0.93327 | 0.91 | 0.874 | 0.839 | 0.818 | 0.822 | 0.743 | 0.71 | 0.64
100 µM, coculture fibroblast: HUF | 0.97 | 0.934 | 0.952 | 0.912 | 0.892 | 0.874 | 0.864 | 0.862 | 0.861
100 µM, coculture fibroblast: Hs5 | 0.764 | 0.95672 | 0.921 | 0.867 | 0.839 | 0.815 | 0.812 | 0.799 | 0.81
100 µM, coculture fibroblast: Hs27A | 0.971 | 0.946 | 0.933 | 0.924 | 0.871 | 0.79 | 0.833 | 0.823 | 0.77
100 µM, coculture fibroblast: Hs343T | 0.762 | 0.864 | 0.895 | 0.94 | 0.909 | 0.875 | 0.8584 | 0.846 | 0.839
100 µM, coculture fibroblast: WS1 | 0.925 | 0.922 | 0.7658 | 0.894 | 0.867 | 0.875 | 0.846 | 0.904 | 0.918
